This is an account of results in article PMC7819943, “Rice protein-binding microarrays: a tool to detect cis-acting elements near promoter regions in rice”.

Some of the results follow.

The target in the assay is T1, OsSMF1 (Oryza sativa, UniProt Q6ZLB0 1-436).
T1 sequence: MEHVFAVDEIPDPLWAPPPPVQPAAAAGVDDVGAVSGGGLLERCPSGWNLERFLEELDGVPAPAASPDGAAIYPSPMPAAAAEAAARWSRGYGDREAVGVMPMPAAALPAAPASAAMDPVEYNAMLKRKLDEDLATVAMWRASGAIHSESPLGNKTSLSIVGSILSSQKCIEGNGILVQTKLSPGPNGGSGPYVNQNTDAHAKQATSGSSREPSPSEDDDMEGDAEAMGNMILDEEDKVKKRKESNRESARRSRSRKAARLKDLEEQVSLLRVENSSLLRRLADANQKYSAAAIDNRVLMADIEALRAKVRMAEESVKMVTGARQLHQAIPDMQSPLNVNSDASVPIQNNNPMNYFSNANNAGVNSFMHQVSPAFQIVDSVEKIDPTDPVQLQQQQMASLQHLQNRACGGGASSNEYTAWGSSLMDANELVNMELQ
In words: protein-binding microarray (RPBM); PBS, 2% BSA, 51.3 ng/ul salmon testes DNA, 50 uM zinc acetate, 200 nM TF, 25 C, 1 h; high values mean tight binding. The conditions noted are these: protein: recombinant; tags: N-terminal polyhistidine and DsRed monomer fusion (pET32a); chain copies: 2; label: CyDye5-dUTP incorporated in the synthesized complementary strand; 3' TTTTT single-stranded linker to array surface; dsDNA, one strand shown. Summed up: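 The binding signal is fluorescence intensity per feature, in arbitrary units, read on an Axon 4000B scanner. Polyhistidine- and DsRed-tagged transcription factors (N-terminal fusions) from E. coli BL21-CodonPlus were purified on Ni–NTA and applied at 200 nM for 1 h at 25 °C to a double-stranded, BSA-blocked custom Agilent array in buffer with 50 µM zinc acetate.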
As for “ATGGCAGTGGAGGCGTAGAACTGTAGAAGTGTATCTTATCCGGAGTCACCTAGTGCAG”, the binding signal was 3320 fluorescence intensity (a.u.).
In the case of “GAGACGAGATCCCTTTCCTCTGTCACCTTTCTCCCCTCCGCGGAGTCACCTAGTGCAG”, the binding signal was 3430 fluorescence intensity (a.u.).
For the sequence “CCGGACCAAAATGACGTGCCTTAGGCCGGGCCGCCAGCCTCGGAGTCACCTAGTGCAG”, the binding signal is 3830 fluorescence intensity (a.u.).
For the sequence “AATAATTCGCAGCGTCATATCATGCAATATCTAATCGTCGCGGAGTCACCTAGTGCAG”, the binding signal was 3260 fluorescence intensity (a.u.).
The figure for “ACTGCGTTGAGAACATTATTACCACAATGTGATGTGGCCTCGGAGTCACCTAGTGCAG” is 4630 fluorescence intensity (a.u.); for “TGGGGCCGTGAGGCCACGTGCCCGGCATGCCACGGTGGAGCGGAGTCACCTAGTGCAG” it is 10000 fluorescence intensity (a.u.); for “ACACACACACACACCCACCACACCACCCCGGCCGCTTCCGCGGAGTCACCTAGTGCAG” it is 3210 fluorescence intensity (a.u.).
Turning to “AGTAATAGAGATGCACAGATGGAGCGAGTATGAGATAATGCGGAGTCACCTAGTGCAG”, the binding signal was 29600 fluorescence intensity (a.u.).
On to “AGTTCTACTTGAGTTATGTAATGAATCACAATGCCTTCATCGGAGTCACCTAGTGCAG”, for which the binding signal is 53400 fluorescence intensity (a.u.).
The figure for “ACGCATCAACAGTGGAGGGAGGGGAGGGGAGGAGCTTCCCCGGAGTCACCTAGTGCAG” is 3940 fluorescence intensity (a.u.).
On to “CCTGTGCCAGCTTGGACTCTCTCATCTCACCCCTTTCTTTCGGAGTCACCTAGTGCAG”, for which the binding signal was 4360 fluorescence intensity (a.u.).
On to “CTGTGTGAACAACAAATCAATGGCCACGTCATATATGTACCGGAGTCACCTAGTGCAG”, for which the binding signal is 16800 fluorescence intensity (a.u.).
As for “AAAGGTAATCTACTATAGCCGCTACAAACATTTCTCCCTCCGGAGTCACCTAGTGCAG”, the binding signal was 11800 fluorescence intensity (a.u.).
For “TTGACTTTGCCTCTCTTGATGAGTGTACCATCATATTTTCCGGAGTCACCTAGTGCAG” the value was 3170 fluorescence intensity (a.u.); for “TACCCTTGTGCCGGCCGAGACGGCACCACGCCTTTCTCGTCGGAGTCACCTAGTGCAG”, 5000 fluorescence intensity (a.u.); for “TCCAGATGATGGAACATCTACACGCTACCCCACGTCGGCTCGGAGTCACCTAGTGCAG”, 5000 fluorescence intensity (a.u.).
On to “CCGCTGCGCGAGATGCGATGCGACTGTGTCAACCCACGCGCGGAGTCACCTAGTGCAG”, for which the binding signal is 3500 fluorescence intensity (a.u.).
As to “TTAGGGCCACGGATAAGATTTCGATACCTTTTGAGGGTCGCGGAGTCACCTAGTGCAG”, the binding signal is 3380 fluorescence intensity (a.u.).
For the sequence “ATCCCTTTCTGTCGAATGGTCTCTCATAACGCCTCCCCTACGGAGTCACCTAGTGCAG”, the binding signal was 3480 fluorescence intensity (a.u.).
“CAGTGCCGACTGCCGAGGCAGAGAGGCAGACAAAGTGACACGGAGTCACCTAGTGCAG”: the binding signal is 54900 fluorescence intensity (a.u.).
As for “CGCGTGGTCAGCTACACGTACTTGACTTGTTCTGTTACTCCGGAGTCACCTAGTGCAG”, the binding signal is 4480 fluorescence intensity (a.u.).
The figure for “CCTCCTCCCTGATCGAGATCGAGTCGACACACATACACCACGGAGTCACCTAGTGCAG” is 3560 fluorescence intensity (a.u.); for “CGCCAAGTCCGACGTCCTCCTCTGAACAATCCAAGTATCCCGGAGTCACCTAGTGCAG” it is 3270 fluorescence intensity (a.u.).
Consider “CTTCCCTCCCTCATGCACGCTGACGCTGCAATGCTCCTCCCGGAGTCACCTAGTGCAG”, for which the binding signal was 8110 fluorescence intensity (a.u.).
As for “CAAACAAGCCACGTAGATGCCACGTCATCCAAAACCGCCTCGGAGTCACCTAGTGCAG”, the binding signal was 29600 fluorescence intensity (a.u.).
Regarding “AAACTCTGCACCAATGCAGTTCCAAGCATTACACATCATCCGGAGTCACCTAGTGCAG”, the binding signal is 4350 fluorescence intensity (a.u.).
As to “GTTAAAATGTGTTTGATGTTTGGGTTCTATATTGCCACGCCGGAGTCACCTAGTGCAG”, the binding signal is 13600 fluorescence intensity (a.u.).
For “CGGCTCAATACCACGCGGGATCCACCGTGATTTCGGCCCACGGAGTCACCTAGTGCAG”, the binding signal was 3210 fluorescence intensity (a.u.).
As for “GCCCGCCCGTCCCGTCCGACGTCCGCGTCACGCACGCGCGCGGAGTCACCTAGTGCAG”, the binding signal was 7940 fluorescence intensity (a.u.).
Turning to “CCTAACGAAACGATCCGGGTGCCACGTTTGGAGGCAATAGCGGAGTCACCTAGTGCAG”, the binding signal was 5700 fluorescence intensity (a.u.).
As to “AAGGAGAGGGAGGATGACATGTGGTCTCTCATGTCAGTGACGGAGTCACCTAGTGCAG”, the binding signal was 3630 fluorescence intensity (a.u.).
“TAACCAAAACGCATGCATACGTACGTAAGTGACACCAGCCCGGAGTCACCTAGTGCAG”: the binding signal was 4070 fluorescence intensity (a.u.).
With “CCTGTCACCCTCTCCATCGCCACGCAGCACGCAACCTCGCCGGAGTCACCTAGTGCAG”, the binding signal was 3580 fluorescence intensity (a.u.).
On to “TGTTCCACAAACTGTTCGTTTCTTTGCCAACGCCTCCAAACGGAGTCACCTAGTGCAG”, for which the binding signal is 3470 fluorescence intensity (a.u.).
For the sequence “AATGATCACCCCGTATGCAGGCAGGACGCGCAACTTGAGCCGGAGTCACCTAGTGCAG”, the binding signal is 3220 fluorescence intensity (a.u.).
Take “ATGCGCCATGTCAAAGCCACGTCAGATAAAGACCGAGTCACGGAGTCACCTAGTGCAG”: the binding signal is 22000 fluorescence intensity (a.u.).
For “ATGCACGAATCTCTGAACTAATTGCACAGTGAAAGAATCGCGGAGTCACCTAGTGCAG”, the binding signal was 3470 fluorescence intensity (a.u.).
Regarding “CGAAGACTAAGTCAACACCACCACGTAGTCGCCACATCAGCGGAGTCACCTAGTGCAG”, the binding signal is 8880 fluorescence intensity (a.u.).
Consider “TTGAGAACTTCATCATTGCCTCAGTCAGCTTGAGCGCCTACGGAGTCACCTAGTGCAG”, for which the binding signal is 3380 fluorescence intensity (a.u.).
For “GCTGGCGTGTTCGCTTCCGGTGATATCCACGTCGCCCGGCCGGAGTCACCTAGTGCAG” the value was 6590 fluorescence intensity (a.u.); for “CTATAGTATCCTCTTATATTTAACTGTGAGGCTTTTCTCCCGGAGTCACCTAGTGCAG”, 3460 fluorescence intensity (a.u.).
Turning to “GCGTTGCTAGATGCCACGTTGACACCTAGGTGTCAGTGAACGGAGTCACCTAGTGCAG”, the binding signal is 7850 fluorescence intensity (a.u.).
For the sequence “CAGACACACAAATTTTCCACAGTTTCAGGCTCGCAGGCAGCGGAGTCACCTAGTGCAG”, the binding signal was 17500 fluorescence intensity (a.u.).
Take “TTTATTTATGACGTCATTATTCCCCTCTCGCGCGCCTATACGGAGTCACCTAGTGCAG”: the binding signal is 11800 fluorescence intensity (a.u.).
Take “TCTACGTCAGGAGTTGAGCACAAATCATATCCGTCAGCTCCGGAGTCACCTAGTGCAG”: the binding signal was 3410 fluorescence intensity (a.u.).
With “GAGCTGTTGTTGTGACATCCCAGGTCTTAGTTTTATGCTTCGGAGTCACCTAGTGCAG”, the binding signal is 3270 fluorescence intensity (a.u.).
As to “CTCATCTCAAGCTTTTCTCTCTCTCTCTCTCTTTGCACTACGGAGTCACCTAGTGCAG”, the binding signal was 4680 fluorescence intensity (a.u.).
“AACTAAAATTCATGGACACCACGTATGTGTAAGTATGTGTCGGAGTCACCTAGTGCAG”: the binding signal was 6320 fluorescence intensity (a.u.).
With “TTTTCCCTGTTTCATTGACGTGGCATACGGTGGGTTCCACCGGAGTCACCTAGTGCAG”, the binding signal was 20600 fluorescence intensity (a.u.).
As for “ACTGGCTCAGTGGTTAGTGGTGACTAGTCATCGGACTCGGCGGAGTCACCTAGTGCAG”, the binding signal is 6520 fluorescence intensity (a.u.).
For “CCTCGCCACGGCGAGGCCCTCCACGCCTGGGCGCTCAAGTCGGAGTCACCTAGTGCAG” the value was 3570 fluorescence intensity (a.u.); for “ACCGACGAAGTGACGTGAGTCTATCAAACCTTGGGGAACCCGGAGTCACCTAGTGCAG”, 3980 fluorescence intensity (a.u.).
Turning to “GGAGAGGAGGGGAAAAGAGAGAGGAGGCTGACGTGGCCACCGGAGTCACCTAGTGCAG”, the binding signal is 34100 fluorescence intensity (a.u.).
Take “GTCCACGCGTGACGTGGATACAAGCGATTCGTCACCCCTCCGGAGTCACCTAGTGCAG”: the binding signal is 17100 fluorescence intensity (a.u.).
